Source: paper doi:10.1101/2021.03.20.435662

Protein sequences, listed by entry. Tags and fused reporters are not part of them. Lines headed by an entry give the natural chain unless they say otherwise; changes in a name come on top.
UniProt F4K465: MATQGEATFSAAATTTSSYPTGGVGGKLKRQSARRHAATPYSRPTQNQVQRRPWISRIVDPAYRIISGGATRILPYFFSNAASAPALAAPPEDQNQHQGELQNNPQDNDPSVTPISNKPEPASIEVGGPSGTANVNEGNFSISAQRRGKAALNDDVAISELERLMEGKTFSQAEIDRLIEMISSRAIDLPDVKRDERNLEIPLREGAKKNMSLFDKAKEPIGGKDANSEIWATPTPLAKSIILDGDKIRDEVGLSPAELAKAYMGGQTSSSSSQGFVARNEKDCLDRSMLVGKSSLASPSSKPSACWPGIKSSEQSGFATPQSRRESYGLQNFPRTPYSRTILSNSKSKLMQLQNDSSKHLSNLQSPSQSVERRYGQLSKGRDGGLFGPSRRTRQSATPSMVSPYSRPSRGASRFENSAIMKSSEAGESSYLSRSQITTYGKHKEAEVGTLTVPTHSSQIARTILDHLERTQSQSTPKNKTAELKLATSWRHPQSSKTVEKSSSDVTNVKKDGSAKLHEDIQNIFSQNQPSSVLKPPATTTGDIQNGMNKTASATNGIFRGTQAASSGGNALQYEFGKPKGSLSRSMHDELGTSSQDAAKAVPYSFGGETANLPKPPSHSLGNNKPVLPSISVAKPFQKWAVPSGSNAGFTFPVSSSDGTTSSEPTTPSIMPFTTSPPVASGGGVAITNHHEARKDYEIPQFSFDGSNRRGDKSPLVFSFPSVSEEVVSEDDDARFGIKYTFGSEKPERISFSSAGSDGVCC

Tests used:
[1] = biological target: T1, CROWDED NUCLEI 1 (CRWN1), yeast two-hybrid fusion (Arabidopsis thaliana) (UniProt F4HRT5); assay: two-hybrid
T1 sequence: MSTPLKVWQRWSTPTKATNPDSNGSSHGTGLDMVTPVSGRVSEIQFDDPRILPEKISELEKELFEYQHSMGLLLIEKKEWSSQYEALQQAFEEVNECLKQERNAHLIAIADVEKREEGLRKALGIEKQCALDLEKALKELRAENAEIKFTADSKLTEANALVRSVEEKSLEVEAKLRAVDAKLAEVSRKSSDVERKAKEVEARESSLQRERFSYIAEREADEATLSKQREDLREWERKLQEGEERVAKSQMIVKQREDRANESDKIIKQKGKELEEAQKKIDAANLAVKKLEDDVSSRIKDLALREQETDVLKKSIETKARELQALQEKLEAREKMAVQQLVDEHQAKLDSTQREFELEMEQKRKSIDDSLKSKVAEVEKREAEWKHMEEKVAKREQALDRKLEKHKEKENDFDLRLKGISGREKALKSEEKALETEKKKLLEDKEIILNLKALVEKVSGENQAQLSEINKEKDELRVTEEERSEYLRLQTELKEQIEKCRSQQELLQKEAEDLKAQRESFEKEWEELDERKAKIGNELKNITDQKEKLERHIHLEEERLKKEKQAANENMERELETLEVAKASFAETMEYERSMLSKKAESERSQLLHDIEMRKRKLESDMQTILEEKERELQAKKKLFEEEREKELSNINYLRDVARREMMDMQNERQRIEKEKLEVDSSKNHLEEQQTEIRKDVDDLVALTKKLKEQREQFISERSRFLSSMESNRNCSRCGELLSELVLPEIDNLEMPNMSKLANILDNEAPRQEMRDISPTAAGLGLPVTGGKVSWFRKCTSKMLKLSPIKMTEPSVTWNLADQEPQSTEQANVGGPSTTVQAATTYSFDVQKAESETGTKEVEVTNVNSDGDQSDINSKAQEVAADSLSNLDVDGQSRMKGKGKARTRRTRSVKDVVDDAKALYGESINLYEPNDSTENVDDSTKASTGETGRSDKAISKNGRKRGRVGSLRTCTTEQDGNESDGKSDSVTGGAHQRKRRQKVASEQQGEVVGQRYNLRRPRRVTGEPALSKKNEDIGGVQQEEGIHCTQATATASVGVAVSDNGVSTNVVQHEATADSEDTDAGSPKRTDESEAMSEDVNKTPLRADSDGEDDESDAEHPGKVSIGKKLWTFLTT

[2] = biological target: T2, CROWDED NUCLEI 2 (CRWN2), yeast two-hybrid fusion (Arabidopsis thaliana) (UniProt Q9SAF6); assay: two-hybrid
T2 sequence: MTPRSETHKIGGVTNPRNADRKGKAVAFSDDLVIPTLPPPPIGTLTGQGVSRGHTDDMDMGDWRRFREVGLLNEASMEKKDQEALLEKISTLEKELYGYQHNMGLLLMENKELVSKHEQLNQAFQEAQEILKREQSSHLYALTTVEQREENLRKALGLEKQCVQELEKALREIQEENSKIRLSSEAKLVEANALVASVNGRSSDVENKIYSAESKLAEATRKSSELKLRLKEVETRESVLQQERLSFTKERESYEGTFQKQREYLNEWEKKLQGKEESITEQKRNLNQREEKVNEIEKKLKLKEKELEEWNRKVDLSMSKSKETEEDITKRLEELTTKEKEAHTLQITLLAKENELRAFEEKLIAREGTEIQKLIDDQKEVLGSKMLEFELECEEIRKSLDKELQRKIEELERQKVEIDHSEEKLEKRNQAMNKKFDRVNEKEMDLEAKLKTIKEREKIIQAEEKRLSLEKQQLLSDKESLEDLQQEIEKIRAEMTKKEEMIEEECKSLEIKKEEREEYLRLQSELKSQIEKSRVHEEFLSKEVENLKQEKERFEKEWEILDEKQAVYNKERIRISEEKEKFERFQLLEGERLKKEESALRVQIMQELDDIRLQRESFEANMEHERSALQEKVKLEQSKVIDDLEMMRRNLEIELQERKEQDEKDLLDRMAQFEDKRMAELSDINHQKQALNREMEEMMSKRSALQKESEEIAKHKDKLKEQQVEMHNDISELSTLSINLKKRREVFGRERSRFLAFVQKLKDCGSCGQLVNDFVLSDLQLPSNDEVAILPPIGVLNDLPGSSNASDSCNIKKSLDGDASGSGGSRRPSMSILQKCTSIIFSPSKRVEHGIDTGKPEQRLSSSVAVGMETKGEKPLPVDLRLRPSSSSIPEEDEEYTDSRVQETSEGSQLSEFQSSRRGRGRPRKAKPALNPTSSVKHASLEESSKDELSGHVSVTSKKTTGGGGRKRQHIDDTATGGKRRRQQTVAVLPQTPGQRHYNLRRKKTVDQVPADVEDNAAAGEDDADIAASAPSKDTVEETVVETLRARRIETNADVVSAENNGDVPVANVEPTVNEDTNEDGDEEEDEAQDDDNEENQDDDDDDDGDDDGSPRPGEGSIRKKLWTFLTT

[3] = biological target: T3, CROWDED NUCLEI 3 (CRWN3), yeast two-hybrid fusion (Arabidopsis thaliana) (UniProt Q9CA42); assay: two-hybrid
T3 sequence: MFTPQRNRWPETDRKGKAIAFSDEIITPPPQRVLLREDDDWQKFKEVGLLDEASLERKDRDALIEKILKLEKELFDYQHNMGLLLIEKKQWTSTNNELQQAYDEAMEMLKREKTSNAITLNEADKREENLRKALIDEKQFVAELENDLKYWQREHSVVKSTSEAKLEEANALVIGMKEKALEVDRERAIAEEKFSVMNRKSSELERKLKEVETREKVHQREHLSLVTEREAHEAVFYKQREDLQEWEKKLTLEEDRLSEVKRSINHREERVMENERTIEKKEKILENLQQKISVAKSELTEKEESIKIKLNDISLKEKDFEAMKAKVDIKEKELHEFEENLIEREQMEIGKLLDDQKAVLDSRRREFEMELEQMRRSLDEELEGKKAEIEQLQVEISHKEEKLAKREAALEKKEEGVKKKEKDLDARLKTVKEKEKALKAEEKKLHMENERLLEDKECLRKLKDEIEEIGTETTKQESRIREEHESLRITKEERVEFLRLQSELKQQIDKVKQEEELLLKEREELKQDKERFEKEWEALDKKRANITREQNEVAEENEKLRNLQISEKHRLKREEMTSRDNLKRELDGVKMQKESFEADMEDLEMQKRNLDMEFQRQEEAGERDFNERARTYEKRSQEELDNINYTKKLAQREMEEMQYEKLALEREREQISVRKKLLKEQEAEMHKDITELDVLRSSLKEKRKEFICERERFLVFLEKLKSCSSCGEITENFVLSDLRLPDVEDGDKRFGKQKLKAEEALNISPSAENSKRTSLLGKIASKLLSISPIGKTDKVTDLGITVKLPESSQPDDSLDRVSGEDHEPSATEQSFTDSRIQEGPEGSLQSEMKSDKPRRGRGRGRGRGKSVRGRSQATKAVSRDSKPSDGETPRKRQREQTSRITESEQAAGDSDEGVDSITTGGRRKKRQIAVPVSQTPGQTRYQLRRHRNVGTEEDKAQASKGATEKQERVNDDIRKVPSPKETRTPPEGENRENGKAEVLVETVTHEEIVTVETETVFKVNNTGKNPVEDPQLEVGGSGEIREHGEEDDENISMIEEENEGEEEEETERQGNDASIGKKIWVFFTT

[4] = biological target: T4, CROWDED NUCLEI 4 (CRWN4), yeast two-hybrid fusion (Arabidopsis thaliana) (UniProt Q9FLH0); assay: two-hybrid
T4 sequence: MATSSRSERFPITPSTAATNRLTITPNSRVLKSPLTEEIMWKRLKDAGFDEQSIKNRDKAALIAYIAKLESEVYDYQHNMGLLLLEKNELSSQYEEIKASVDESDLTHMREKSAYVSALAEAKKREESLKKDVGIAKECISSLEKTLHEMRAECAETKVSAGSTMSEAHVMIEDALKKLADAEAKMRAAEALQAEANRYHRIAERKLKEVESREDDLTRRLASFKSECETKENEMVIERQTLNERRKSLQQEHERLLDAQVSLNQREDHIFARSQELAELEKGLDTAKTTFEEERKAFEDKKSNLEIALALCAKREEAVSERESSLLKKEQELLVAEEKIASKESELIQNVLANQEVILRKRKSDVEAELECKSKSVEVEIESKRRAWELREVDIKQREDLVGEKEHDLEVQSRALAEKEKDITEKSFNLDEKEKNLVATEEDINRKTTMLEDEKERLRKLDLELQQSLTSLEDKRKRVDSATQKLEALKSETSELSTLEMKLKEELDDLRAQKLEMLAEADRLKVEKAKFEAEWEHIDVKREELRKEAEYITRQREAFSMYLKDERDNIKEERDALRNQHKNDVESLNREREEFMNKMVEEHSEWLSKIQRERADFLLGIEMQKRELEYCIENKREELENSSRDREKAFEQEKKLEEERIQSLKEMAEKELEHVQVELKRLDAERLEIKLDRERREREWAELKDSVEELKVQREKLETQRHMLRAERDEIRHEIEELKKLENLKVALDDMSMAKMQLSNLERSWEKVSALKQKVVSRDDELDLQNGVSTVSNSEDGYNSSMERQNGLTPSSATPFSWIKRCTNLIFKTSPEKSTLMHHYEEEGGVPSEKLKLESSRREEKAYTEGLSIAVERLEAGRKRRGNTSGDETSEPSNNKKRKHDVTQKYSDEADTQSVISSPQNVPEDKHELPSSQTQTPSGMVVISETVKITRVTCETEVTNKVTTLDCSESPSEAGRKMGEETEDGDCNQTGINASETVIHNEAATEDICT

[5] = biological target: T5, CRWN2, BiFC fusion (half of YFP) (Arabidopsis thaliana) (UniProt Q9SAF6); assay: split reporter
T5 sequence: T2 sequence

Row | binding [1] | binding [2] | binding [3] | binding [4] | binding [5] | Substance
1 | binds | binds | binds | no binding |  | NUP82, yeast two-hybrid fusion (from UniProt F4K465)
2 |  |  |  |  | binds | NUP82, BiFC fusion (half of YFP) (from UniProt F4K465)

No constants are given. Whether binding was seen depends on the method and setting. For some assays here: Binding can be weak; no strength is given. Tags and fused reporters may be left off the sequences shown. For some assays here: In cells and extracts the contact can be indirect.
